PubChem BioAssay AID504774 – Drosophila RNAi Screening Center, 2011
The deposit covers about 23,000 reagents; shown is an unselected part of those that have a named target and a result. 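Values are quantile-normalised luminescence on an arbitrary scale; higher means more cells surviving MMS.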 The numbers tell different reagents against one gene apart. Names joined by + are all predicted targets of the reagent. Further read-outs or replicates are left out here.

- Screen: 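Fly genes whose loss alters survival after alkylation damage to DNA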 (primary screen)
- System: Drosophila Kc167 cells
- Knock-down reagent: long dsRNA against Drosophila genes, about 0.25 µg dsRNA per well
- Timing: about 6 days: 3 days knock-down, then 3 days with or without MMS
- Conditions: methyl methanesulphonate 0.004% (w/v) for 3 days after knock-down
- Measured: 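ATP-dependent luminescence as a measure of live cells in MMS-exposed wells, quantile normalised within each plate, with replicate values also given as a mean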
- Direction: mean viability with MMS: higher = more surviving cells after MMS

mean viability with MMS, by gene knocked down and reagent
CG11593: #1 3.45e6
Ccdc58 (Coiled-coil domain-containing 58): #1 3.75e6
Gs1l (GS1-like): #1 3.49e6
CG7702: #1 3.47e6
CCKLR-17D3 (Cholecystokinin-like receptor at 17D3): #1 3.85e6; #2 3.49e6
aph-1 (anterior pharynx defective 1): #1 3.45e6
Not10 (CCR4-NOT transcription complex subunit 10): #1 3.58e6
CG17124: #1 3.73e6
CheA75a (Chemosensory protein A 75a): #1 3.62e6
CG13364: #1 3.73e6; #2 3.58e6
Ae2 (Anion exchanger 2): #1 1.67e6; #2 3.47e6
wapl (wings apart-like): #1 3.54e6
CG33282: #1 3.60e6
CG8578: #1 3.47e6
mRpS18A (mitochondrial ribosomal protein S18A): #1 3.58e6
CG10474: #1 3.42e6
SdhD (Succinate dehydrogenase, subunit D): #1 3.53e6
mrt (martik): #1 3.50e6
teq (Tequila): #1 3.33e6; #2 3.33e6; #3 3.40e6
CG3251: #1 3.42e6
Sulf1 (Sulfated): #1 3.44e6
CG3808: #1 3.37e6
Ykt6 (YKT6 v-SNARE): #1 3.61e6
CG32081: #1 3.66e6
Shab (Shaker cognate b): #1 3.68e6; #2 3.44e6; #3 3.26e6
lncRNA:CR42646 (long non-coding RNA:CR42646): #1 3.45e6
CG1850: #1 3.58e6
CG7565: #1 3.39e6
Ac3 (Adenylate cyclase 3): #1 3.68e6
l(2)09851 (lethal (2) 09851): #1 3.64e6
CG46491: #1 3.73e6; #2 3.51e6
cyp33 + CG34194: #1 3.79e6
snk (snake): #1 3.53e6
vnd (ventral nervous system defective): #1 3.53e6; #2 3.64e6; #3 3.68e6
Vha100-2 (Vacuolar H[+] ATPase 100kD subunit 2): #1 3.61e6
CG15919: #1 1.87e6
CG11131: #1 3.70e6; #2 3.41e6
smg (smaug): #1 3.59e6
dnr1 (defense repressor 1): #1 3.45e6; #2 3.52e6
CG16825: #1 3.45e6
APC4 (Anaphase Promoting Complex subunit 4): #1 3.19e6
Dis3: #1 3.41e6
CG10550: #1 3.49e6
CG11756: #1 3.61e6
Rpn2 (Regulatory particle non-ATPase 2): #1 2.87e6
Frmd5 (FERM domain containing): #1 3.58e6
qkr58E-2 (quaking related 58E-2): #1 3.38e6
SIFaR (SIFamide receptor): #1 3.49e6; #2 3.53e6
obst-G (obstructor-G): #1 3.45e6
CG3419 (retired record): #1 3.58e6; #2 3.62e6
a6: #1 3.55e6
Pka-C1 (Protein kinase, cAMP-dependent, catalytic subunit 1): #1 3.58e6; #2 3.73e6
TM9SF4 (Transmembrane 9 superfamily protein member 4): #1 3.58e6; #2 3.61e6
dpr17 (defective proboscis extension response 17): #1 3.53e6; #2 2.95e6; #3 3.53e6
scrt (scratch): #1 3.02e6; #2 3.76e6
Cht5 (Chitinase 5): #1 3.43e6
Ndfip (Nedd4 family interacting protein): #1 3.66e6
Ir67c (Ionotropic receptor 67c): #1 3.74e6
l(2)k09848 (lethal (2) k09848): #1 3.38e6
Argk2 (Arginine kinase 2): #1 3.39e6; #2 3.00e6
Pex23 (Peroxin 23): #1 3.58e6; #2 3.63e6
bgcn (benign gonial cell neoplasm): #1 3.51e6; #2 3.60e6
DNAlig3 (DNA ligase 3): #1 3.55e6
eloF (elongase F): #1 3.51e6
CG34112: #1 3.73e6

Records listed so far whose gene name begins with N or n:
mean viability with MMS, by gene knocked down and reagent
Not10 (CCR4-NOT transcription complex subunit 10): #1 3.58e6
Ndfip (Nedd4 family interacting protein): #1 3.66e6
